In article PMC8718147:
Results are given in words; binding and its absence hold for the method and conditions named. Binding seen in cells or lysates may run through a third protein. Some binding calls cover weakened binding; strength is not graded here.

By UniProt entry, the sequences of proteins in these tests, tags left out.
UniProt P59941: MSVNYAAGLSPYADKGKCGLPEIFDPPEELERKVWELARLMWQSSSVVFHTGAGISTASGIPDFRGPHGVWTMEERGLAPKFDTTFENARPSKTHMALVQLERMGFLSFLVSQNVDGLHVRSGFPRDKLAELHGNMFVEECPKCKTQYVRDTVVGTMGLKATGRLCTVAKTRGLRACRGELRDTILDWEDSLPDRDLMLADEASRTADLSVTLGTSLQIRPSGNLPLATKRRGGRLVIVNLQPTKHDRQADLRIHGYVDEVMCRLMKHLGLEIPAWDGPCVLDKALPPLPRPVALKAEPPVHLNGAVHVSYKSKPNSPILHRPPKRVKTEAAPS
UniProt Q6P5F9: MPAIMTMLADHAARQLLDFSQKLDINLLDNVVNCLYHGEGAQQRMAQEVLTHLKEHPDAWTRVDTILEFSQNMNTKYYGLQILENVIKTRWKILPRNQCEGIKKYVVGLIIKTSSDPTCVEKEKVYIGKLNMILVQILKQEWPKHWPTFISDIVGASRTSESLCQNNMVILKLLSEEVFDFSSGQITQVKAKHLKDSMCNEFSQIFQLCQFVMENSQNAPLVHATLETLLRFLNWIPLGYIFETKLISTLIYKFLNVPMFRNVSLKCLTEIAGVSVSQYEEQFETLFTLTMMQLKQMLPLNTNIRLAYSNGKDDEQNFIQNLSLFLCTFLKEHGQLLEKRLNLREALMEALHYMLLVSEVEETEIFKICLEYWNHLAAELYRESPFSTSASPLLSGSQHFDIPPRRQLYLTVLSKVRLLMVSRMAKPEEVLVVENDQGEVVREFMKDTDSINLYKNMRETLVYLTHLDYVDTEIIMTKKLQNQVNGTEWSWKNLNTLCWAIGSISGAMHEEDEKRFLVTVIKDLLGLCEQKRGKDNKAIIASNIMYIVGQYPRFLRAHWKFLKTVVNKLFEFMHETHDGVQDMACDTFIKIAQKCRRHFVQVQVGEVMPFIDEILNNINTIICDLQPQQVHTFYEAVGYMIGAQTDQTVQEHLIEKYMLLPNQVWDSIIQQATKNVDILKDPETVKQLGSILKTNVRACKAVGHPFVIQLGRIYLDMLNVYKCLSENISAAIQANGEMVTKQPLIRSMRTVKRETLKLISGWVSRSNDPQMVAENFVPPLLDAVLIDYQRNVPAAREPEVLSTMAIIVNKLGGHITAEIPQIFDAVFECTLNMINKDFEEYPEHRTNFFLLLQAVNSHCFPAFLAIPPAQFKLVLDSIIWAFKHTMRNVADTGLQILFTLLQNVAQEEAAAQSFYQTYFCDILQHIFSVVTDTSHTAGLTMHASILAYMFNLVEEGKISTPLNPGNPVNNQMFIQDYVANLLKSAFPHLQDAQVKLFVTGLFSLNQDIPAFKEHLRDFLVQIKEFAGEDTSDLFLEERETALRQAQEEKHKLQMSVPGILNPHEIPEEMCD
UniProt Q08775: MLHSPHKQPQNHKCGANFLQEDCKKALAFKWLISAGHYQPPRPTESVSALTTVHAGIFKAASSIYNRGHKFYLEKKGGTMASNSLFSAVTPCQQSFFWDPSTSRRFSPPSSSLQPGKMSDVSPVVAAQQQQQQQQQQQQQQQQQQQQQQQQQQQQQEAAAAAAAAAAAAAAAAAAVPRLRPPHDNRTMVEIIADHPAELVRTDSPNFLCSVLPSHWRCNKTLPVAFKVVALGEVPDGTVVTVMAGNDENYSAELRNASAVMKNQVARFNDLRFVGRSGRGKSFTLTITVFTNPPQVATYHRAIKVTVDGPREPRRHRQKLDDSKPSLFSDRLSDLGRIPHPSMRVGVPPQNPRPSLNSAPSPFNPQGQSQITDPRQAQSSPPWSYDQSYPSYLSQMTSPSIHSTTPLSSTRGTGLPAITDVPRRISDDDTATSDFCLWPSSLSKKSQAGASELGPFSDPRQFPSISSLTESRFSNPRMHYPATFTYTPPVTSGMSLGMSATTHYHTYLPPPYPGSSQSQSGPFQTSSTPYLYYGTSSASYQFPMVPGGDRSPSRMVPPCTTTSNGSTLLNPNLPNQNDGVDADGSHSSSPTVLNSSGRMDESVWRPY

What was measured:
[1] = target: Flag-tagged SIRT6 (mouse) (UniProt P59941); test: co-IP; HEK-293T cells with HA-Runx2 plasmid, flag-SIRT6 plasmid, or both; anti-HA IP and anti-flag IP, Western blot with anti-HA or anti-flag; anti-rabbit IgG IP as negative control
[2] = target: exportin 1 (XPO1), endogenous in mouse VSMCs (mouse (endogenous in mouse VSMCs)) (UniProt Q6P5F9); test: co-IP; lysates of SIRT6-Tg VSMCs treated with Pi (3.0 mM) for 7 days; IP with the indicated antibody (anti-SIRT6, anti-Runx2 or anti-XPO1) overnight at 4°C, protein A+G magnetic beads, Western blot; IgG IP as negative control
[3] = target: Sirtuin 6 (SIRT6) in SIRT6-Tg VSMCs (mouse) (UniProt P59941); test: as above

| Substance | binding [1] | binding [2] | binding [3] |
| --- | --- | --- | --- |
| HA-tagged Runx2 (from UniProt Q08775 1-607) | binds |  |  |
| runt-related transcription factor 2 (Runx2), endogenous in mouse VSMCs (from UniProt Q08775 1-607) |  | binds | binds |
